Laboratory results from US9873709B2 (priority 2013, dated 2018).

Test system: JAK1-dependent STAT6 phosphorylation downstream of IL-13 stimulation in TF-1 human erythroleukemia cells
Experiment: cells
Conditions: TF-1, read-out: IL-13-pSTAT6 IC50

For `CN1CCC(N(C)C(=O)c2ccc(Nc3nc4c(C5=CCN(C(=O)C6CCC6)CC5)cccn4n3)cc2)CC1` [Example 2-282, 4-[[8-[1-(cyclobutanecarbonyl)-3,6-dihydro-2H-pyridin-4-yl]-[1,2,4]triazolo[1,5-a]pyridin-2-yl]amino]-N-methyl-N-(1-methyl-4-piperidyl)benzamide], the IC50 was 46.4 nM.
